Source: PMC9886552
Results are given in words; binding and its absence hold for the method and conditions named. In cells and extracts the contact can be indirect. Here binding means that the protein was enriched with, or labelled near, the bait; the list need not be complete. For part of these data: A no says only that the protein was not detected with the bait. Tags and fused reporters may be left off the sequences shown.

The chains behind the UniProt entries cited, without tags or fusion partners. Residues count along the entry.
UniProt P00367, residues 54-558: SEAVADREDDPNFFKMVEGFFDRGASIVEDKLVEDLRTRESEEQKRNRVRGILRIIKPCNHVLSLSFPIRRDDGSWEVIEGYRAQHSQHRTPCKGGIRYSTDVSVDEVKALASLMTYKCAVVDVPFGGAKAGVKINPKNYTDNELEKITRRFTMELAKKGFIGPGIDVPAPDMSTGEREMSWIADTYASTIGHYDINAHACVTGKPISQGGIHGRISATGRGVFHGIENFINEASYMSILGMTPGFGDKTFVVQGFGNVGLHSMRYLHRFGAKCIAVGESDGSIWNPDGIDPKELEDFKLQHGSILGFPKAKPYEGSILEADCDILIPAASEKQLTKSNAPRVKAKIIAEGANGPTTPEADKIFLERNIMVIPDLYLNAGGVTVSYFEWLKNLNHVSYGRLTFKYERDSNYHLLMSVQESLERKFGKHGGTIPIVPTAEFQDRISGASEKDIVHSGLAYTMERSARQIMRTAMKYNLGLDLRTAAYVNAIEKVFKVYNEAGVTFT

Key:
Assay in all cases: affinity purification with mass spectrometry; cross-linking (0.5% PFA) anti-FLAG IP from transfected 293T cells, on-bead trypsin release, Q-Exactive MS; 1.0% FDR, two peptides minimum at 95% threshold; three biological replicates; controls EV and VLCAD
[1] = biological target: T1, C-terminally FLAG-tagged methylmalonyl-CoA mutase (MMUT) (UniProt P22033)
T1 sequence: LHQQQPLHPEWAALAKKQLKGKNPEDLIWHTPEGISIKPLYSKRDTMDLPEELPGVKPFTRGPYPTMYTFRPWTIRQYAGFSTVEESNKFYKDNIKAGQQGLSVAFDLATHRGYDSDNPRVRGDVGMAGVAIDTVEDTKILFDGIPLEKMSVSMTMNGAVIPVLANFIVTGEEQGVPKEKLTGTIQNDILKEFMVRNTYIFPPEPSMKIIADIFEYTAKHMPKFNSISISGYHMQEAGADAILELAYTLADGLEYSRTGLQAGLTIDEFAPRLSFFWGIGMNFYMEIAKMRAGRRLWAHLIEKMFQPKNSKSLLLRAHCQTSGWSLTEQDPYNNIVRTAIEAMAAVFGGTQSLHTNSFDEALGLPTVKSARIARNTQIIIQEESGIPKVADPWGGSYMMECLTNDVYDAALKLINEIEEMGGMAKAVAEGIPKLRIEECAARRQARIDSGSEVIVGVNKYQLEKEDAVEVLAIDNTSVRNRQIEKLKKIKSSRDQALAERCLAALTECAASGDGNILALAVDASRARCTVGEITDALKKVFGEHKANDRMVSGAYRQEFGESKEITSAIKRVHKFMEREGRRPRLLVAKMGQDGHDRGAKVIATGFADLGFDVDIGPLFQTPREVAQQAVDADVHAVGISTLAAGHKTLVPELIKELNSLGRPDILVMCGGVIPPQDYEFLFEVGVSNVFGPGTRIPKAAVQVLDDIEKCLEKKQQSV

[2] = biological target: T2, C-terminally FLAG-tagged MCEE (UniProt Q96PE7)
T2 sequence: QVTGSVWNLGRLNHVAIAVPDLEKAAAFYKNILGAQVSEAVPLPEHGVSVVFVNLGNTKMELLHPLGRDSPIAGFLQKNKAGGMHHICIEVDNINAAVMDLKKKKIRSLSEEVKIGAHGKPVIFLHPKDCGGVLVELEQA

[3] = biological target: T3, C-terminally FLAG-tagged VLCAD (UniProt P49748)
T3 sequence: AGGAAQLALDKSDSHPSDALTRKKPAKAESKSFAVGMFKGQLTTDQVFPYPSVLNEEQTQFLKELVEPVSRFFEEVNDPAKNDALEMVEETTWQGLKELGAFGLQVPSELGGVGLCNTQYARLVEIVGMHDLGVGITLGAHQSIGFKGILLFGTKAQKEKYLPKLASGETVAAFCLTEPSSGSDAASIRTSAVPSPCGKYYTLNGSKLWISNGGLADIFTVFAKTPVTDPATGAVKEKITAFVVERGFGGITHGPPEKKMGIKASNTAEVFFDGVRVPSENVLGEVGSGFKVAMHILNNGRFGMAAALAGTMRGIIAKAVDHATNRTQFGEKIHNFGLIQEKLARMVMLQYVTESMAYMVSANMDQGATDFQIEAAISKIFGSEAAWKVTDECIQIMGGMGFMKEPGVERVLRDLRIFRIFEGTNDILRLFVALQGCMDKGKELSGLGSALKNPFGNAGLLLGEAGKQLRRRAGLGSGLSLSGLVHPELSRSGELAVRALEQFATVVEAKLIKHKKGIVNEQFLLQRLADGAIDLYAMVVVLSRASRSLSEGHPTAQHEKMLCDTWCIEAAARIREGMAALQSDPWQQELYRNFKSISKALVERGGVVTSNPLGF

[4] = biological target: T4, C-terminally FLAG-tagged MMAB (UniProt Q96EY8)
T4 sequence: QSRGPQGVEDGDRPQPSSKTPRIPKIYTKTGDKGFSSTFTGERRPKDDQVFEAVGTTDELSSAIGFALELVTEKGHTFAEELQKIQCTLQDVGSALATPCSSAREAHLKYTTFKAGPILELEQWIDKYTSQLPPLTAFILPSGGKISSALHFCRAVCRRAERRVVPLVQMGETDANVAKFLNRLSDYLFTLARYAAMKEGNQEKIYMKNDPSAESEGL

[5] = biological target: T5, C-terminally FLAG-tagged MMAA (UniProt Q8IVH4)
T5 sequence: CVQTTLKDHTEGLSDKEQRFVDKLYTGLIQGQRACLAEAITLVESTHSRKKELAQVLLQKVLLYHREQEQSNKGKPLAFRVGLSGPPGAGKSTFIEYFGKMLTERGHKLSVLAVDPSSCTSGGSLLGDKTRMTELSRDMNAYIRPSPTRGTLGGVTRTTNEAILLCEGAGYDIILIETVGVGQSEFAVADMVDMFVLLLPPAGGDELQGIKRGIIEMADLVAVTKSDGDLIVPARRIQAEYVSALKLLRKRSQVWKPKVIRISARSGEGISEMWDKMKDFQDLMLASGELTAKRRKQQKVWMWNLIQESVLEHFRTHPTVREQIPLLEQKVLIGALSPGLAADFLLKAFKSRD

Row | Molecule | binding [1] | binding [2] | binding [3] | binding [4] | binding [5]
1 | GLUD1 (glutamate dehydrogenase) (from UniProt P00367 54-558) | binds | binds | no binding | binds | 
2 | endogenous methylmalonyl-CoA mutase (MMUT) (protein, UniProt P22033 33-750) LHQQQPLHPEWAALAKKQLKGKNPEDLIWHTPEGISIKPLYSKRDTMDLPEELPGVKPFTRGPYPTMYTFRPWTIRQYAGFSTVEESNKFYKDNIKAGQQGLSVAFDLATHRGYDSDNPRVRGDVGMAGVAIDTVEDTKILFDGIPLEKMSVSMTMNGAVIPVLANFIVTGEEQGVPKEKLTGTIQNDILKEFMVRNTYIFPPEPSMKIIADIFEYTAKHMPKFNSISISGYHMQEAGADAILELAYTLADGLEYSRTGLQAGLTIDEFAPRLSFFWGIGMNFYMEIAKMRAGRRLWAHLIEKMFQPKNSKSLLLRAHCQTSGWSLTEQDPYNNIVRTAIEAMAAVFGGTQSLHTNSFDEALGLPTVKSARIARNTQIIIQEESGIPKVADPWGGSYMMECLTNDVYDAALKLINEIEEMGGMAKAVAEGIPKLRIEECAARRQARIDSGSEVIVGVNKYQLEKEDAVEVLAIDNTSVRNRQIEKLKKIKSSRDQALAERCLAALTECAASGDGNILALAVDASRARCTVGEITDALKKVFGEHKANDRMVSGAYRQEFGESKEITSAIKRVHKFMEREGRRPRLLVAKMGQDGHDRGAKVIATGFADLGFDVDIGPLFQTPREVAQQAVDADVHAVGISTLAAGHKTLVPELIKELNSLGRPDILVMCGGVIPPQDYEFLFEVGVSNVFGPGTRIPKAAVQVLDDIEKCLEKKQQSV |  | binds | no binding | binds | 
3 | GOT2 (protein, UniProt P00505 30-430) SSWWTHVEMGPPDPILGVTEAFKRDTNSKKMNLGVGAYRDDNGKPYVLPSVRKAEAQIAAKNLDKEYLPIGGLAEFCKASAELALGENSEVLKSGRFVTVQTISGTGALRIGASFLQRFFKFSRDVFLPKPTWGNHTPIFRDAGMQLQGYRYYDPKTCGFDFTGAVEDISKIPEQSVLLLHACAHNPTGVDPRPEQWKEIATVVKKRNLFAFFDMAYQGFASGDGDKDAWAVRHFIEQGINVCLCQSYAKNMGLYGERVGAFTMVCKDADEAKRVESQLKILIRPMYSNPPLNGARIAAAILNTPDLRKQWLQEVKVMADRIIGMRTQLVSNLKKEGSTHNWQHITDQIGMFCFTGLKPEQVERLIKEFSIYMTKDGRISVAGVTSSNVGYLAHAIHQVTK | binds | binds | no binding | binds | binds
4 | endogenous MMAB (protein, UniProt Q96EY8 33-250) QSRGPQGVEDGDRPQPSSKTPRIPKIYTKTGDKGFSSTFTGERRPKDDQVFEAVGTTDELSSAIGFALELVTEKGHTFAEELQKIQCTLQDVGSALATPCSSAREAHLKYTTFKAGPILELEQWIDKYTSQLPPLTAFILPSGGKISSALHFCRAVCRRAERRVVPLVQMGETDANVAKFLNRLSDYLFTLARYAAMKEGNQEKIYMKNDPSAESEGL | binds | binds | no binding |  | 
